Experimental data published in the NIST ThermoML archive (doi:10.1021/je9002515).
± gives the expanded uncertainty stated by the source.

Experiments:
[1] = relative permittivity at zero frequency (dimensionless); settings: 101 kPa, Liquid, Parallel plate capacitor
[2] = relative permittivity at zero frequency (dimensionless); xn = mol fraction of the nth substance listed; settings: 101 kPa, Liquid, Parallel plate capacitor, x2 = 0

Row | relative permittivity at zero frequency ([1]; 303.15 K) | relative permittivity at zero frequency ([1]; 313.15 K) | relative permittivity at zero frequency ([1]; 323.15 K) | relative permittivity at zero frequency ([1]; 333.15 K) | relative permittivity at zero frequency ([1]; 343.15 K) | relative permittivity at zero frequency ([1]; 353.15 K) | relative permittivity at zero frequency ([1]; 363.15 K) | relative permittivity at zero frequency ([1]; 373.15 K) | relative permittivity at zero frequency ([1]; 383.15 K) | relative permittivity at zero frequency ([1]; 393.15 K) | relative permittivity at zero frequency ([2]; 303.15 K) | relative permittivity at zero frequency ([2]; 313.15 K) | relative permittivity at zero frequency ([2]; 323.15 K) | relative permittivity at zero frequency ([2]; 333.15 K) | relative permittivity at zero frequency ([2]; 343.15 K) | relative permittivity at zero frequency ([2]; 353.15 K) | relative permittivity at zero frequency ([2]; 363.15 K) | relative permittivity at zero frequency ([2]; 373.15 K) | relative permittivity at zero frequency ([2]; 383.15 K) | relative permittivity at zero frequency ([2]; 393.15 K) | Structure (SMILES)
1 | 38.67 ± 0.39 | 36.551 ± 0.37 | 34.678 ± 0.35 | 32.949 ± 0.33 | 31.458 ± 0.32 | 29.954 ± 0.3 | 28.578 ± 0.29 | 27.287 ± 0.27 | 26.074 ± 0.26 | 24.923 ± 0.25 | – | – | – | – | – | – | – | – | – | – | CC(=O)N(C)C [N,N-dimethylethanamide]
2 | – | – | – | – | – | – | – | – | – | – | 38.67 ± 0.39 | 36.551 ± 0.37 | 34.678 ± 0.35 | 32.949 ± 0.33 | 31.458 ± 0.32 | 29.954 ± 0.3 | 28.578 ± 0.29 | 27.287 ± 0.27 | 26.074 ± 0.26 | 24.923 ± 0.25 | CC(=O)N(C)C [N,N-dimethylethanamide] + CNC(C)=O
